According to the supplement of paper PMC10849652:
This is one part of the list.

The chains behind the UniProt entries cited, without tags or fusion partners. Where a name states a change or a piece, a line headed by the entry shows the natural chain unless it says otherwise.
UniProt Q03014: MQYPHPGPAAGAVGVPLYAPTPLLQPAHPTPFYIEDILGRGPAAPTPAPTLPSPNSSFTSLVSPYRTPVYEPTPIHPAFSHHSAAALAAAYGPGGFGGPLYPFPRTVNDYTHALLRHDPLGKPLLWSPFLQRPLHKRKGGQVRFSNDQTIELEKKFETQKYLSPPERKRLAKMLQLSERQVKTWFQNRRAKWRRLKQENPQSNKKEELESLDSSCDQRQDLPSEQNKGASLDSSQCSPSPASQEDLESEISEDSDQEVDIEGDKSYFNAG
UniProt P17482: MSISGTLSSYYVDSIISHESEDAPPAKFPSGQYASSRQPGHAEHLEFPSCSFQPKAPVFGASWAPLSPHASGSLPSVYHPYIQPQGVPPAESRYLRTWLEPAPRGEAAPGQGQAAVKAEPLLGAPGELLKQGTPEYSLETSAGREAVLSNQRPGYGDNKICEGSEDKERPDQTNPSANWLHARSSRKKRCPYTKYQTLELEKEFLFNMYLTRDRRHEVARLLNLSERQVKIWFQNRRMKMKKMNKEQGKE
UniProt Q9BW72: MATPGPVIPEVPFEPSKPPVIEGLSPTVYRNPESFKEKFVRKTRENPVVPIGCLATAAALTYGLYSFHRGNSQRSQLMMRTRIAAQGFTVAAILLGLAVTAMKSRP
UniProt Q9NSC5: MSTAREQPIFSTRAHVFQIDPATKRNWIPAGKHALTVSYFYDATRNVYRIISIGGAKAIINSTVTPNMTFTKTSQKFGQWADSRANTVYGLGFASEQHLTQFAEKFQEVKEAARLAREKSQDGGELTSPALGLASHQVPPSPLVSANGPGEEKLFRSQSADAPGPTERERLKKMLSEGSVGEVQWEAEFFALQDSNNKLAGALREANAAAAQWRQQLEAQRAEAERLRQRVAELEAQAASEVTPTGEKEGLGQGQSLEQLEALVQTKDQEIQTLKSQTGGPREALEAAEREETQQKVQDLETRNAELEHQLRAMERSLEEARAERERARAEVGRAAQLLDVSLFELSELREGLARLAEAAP
UniProt Q9P2D0: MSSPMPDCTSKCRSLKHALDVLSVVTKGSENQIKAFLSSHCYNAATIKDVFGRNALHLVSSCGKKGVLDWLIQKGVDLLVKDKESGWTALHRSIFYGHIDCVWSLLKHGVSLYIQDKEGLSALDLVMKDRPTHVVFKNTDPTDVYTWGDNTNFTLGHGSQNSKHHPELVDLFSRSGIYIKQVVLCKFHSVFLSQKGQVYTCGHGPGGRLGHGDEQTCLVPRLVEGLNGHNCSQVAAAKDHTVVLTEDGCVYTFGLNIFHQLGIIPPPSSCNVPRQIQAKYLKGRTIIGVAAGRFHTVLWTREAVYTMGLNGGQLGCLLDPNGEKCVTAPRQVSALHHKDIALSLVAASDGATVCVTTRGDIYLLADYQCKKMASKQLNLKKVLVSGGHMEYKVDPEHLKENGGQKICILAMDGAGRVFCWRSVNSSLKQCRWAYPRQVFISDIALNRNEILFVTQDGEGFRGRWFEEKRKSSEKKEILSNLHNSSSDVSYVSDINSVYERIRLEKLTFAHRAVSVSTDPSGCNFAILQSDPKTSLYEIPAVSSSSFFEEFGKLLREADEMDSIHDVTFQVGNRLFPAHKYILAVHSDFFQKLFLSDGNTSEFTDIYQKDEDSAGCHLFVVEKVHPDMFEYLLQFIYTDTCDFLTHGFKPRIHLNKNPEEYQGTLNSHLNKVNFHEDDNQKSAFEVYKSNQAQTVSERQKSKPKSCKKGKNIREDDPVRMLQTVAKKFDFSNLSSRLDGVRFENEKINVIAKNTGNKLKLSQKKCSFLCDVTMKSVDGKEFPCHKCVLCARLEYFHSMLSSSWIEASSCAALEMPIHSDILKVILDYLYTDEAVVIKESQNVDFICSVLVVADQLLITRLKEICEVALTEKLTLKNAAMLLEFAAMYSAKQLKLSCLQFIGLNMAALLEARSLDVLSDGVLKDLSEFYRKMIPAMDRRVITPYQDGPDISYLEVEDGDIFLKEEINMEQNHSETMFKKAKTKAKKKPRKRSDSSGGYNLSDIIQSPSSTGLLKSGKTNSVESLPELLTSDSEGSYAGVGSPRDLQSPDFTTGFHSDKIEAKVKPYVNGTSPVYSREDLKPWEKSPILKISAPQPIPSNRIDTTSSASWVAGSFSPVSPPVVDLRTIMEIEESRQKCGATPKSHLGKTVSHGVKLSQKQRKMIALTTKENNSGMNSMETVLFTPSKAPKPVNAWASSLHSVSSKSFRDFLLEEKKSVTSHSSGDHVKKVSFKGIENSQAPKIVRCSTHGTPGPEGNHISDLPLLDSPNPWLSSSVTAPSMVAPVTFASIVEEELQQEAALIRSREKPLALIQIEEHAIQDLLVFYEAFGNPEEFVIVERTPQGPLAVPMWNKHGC
UniProt Q9Y241: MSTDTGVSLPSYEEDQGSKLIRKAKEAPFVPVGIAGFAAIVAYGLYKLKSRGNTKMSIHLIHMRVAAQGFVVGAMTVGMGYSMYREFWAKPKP
UniProt Q9NZL4: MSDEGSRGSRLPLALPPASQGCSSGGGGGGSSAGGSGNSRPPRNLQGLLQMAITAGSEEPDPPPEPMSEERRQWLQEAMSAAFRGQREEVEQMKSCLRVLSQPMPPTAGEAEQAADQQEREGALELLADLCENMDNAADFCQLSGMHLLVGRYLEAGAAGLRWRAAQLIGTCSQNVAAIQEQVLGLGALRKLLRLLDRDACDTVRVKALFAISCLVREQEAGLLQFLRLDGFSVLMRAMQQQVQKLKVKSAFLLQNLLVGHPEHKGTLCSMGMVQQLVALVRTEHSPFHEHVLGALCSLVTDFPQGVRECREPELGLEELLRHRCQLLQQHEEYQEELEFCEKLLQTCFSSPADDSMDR
UniProt Q9P0W2: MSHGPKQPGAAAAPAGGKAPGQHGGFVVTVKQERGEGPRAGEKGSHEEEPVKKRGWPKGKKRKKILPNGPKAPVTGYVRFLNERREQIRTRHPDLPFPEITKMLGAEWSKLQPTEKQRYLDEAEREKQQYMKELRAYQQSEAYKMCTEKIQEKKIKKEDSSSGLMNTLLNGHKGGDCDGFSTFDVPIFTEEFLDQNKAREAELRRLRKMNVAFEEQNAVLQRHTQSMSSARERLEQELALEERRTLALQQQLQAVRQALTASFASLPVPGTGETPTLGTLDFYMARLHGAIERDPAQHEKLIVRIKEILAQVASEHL
UniProt P30939: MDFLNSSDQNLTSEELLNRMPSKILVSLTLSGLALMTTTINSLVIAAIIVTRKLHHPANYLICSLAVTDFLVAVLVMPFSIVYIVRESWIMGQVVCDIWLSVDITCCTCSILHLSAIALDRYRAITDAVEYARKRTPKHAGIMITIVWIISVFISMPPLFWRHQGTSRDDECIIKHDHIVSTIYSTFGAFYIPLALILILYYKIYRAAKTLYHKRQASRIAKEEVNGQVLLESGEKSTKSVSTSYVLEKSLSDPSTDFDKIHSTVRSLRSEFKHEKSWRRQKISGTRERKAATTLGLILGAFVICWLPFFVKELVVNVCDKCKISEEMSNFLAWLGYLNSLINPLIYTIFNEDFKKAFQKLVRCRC
UniProt Q9NSB8: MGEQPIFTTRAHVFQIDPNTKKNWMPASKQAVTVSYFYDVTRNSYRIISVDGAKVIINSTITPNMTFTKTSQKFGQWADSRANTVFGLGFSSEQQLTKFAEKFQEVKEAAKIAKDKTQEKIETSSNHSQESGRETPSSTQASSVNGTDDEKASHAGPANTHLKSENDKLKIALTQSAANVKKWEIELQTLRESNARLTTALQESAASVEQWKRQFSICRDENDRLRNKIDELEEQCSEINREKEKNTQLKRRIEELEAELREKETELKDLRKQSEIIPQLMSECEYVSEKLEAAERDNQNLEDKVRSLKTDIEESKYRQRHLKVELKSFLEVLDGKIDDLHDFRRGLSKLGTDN
UniProt O43390: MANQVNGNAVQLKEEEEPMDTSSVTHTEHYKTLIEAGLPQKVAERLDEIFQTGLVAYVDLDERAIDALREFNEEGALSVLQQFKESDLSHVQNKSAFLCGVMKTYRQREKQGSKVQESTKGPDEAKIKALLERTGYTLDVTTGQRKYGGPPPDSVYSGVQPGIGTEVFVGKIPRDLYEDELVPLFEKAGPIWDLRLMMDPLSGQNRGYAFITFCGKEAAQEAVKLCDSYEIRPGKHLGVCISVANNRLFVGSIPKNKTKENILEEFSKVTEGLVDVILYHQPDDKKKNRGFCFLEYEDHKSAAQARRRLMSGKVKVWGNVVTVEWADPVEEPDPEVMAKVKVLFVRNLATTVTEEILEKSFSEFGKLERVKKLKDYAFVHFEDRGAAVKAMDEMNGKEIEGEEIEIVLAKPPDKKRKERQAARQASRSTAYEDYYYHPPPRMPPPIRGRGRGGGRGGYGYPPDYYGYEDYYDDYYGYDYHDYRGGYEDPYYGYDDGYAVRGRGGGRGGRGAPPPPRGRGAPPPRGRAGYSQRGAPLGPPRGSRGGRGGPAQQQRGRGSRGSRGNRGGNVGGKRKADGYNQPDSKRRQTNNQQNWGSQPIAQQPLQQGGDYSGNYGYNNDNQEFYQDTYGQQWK
UniProt P13747, whole entry, looked up: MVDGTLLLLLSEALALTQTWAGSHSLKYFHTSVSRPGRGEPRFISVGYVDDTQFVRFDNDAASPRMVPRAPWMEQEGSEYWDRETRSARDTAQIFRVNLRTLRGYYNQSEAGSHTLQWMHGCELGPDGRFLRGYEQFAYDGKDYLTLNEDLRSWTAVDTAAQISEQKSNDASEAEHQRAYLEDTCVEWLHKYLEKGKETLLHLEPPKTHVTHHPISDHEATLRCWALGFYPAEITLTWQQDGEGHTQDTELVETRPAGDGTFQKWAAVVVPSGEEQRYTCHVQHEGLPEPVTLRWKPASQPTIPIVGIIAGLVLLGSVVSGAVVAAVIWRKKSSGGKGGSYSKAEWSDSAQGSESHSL
UniProt P54868: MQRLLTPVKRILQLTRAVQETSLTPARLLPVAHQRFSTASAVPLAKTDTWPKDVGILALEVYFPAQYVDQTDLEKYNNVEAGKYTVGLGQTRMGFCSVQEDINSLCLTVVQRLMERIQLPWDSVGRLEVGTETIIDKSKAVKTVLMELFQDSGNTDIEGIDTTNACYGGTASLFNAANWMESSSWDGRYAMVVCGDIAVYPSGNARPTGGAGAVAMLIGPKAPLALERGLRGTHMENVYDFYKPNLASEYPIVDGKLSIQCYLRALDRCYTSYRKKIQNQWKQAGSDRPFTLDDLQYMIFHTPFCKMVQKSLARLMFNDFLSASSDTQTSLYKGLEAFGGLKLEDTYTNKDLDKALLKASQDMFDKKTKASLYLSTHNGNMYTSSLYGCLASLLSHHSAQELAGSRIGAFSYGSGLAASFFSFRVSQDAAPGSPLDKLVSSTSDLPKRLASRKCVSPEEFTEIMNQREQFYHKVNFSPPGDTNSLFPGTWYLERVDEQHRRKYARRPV
UniProt Q9NQG7: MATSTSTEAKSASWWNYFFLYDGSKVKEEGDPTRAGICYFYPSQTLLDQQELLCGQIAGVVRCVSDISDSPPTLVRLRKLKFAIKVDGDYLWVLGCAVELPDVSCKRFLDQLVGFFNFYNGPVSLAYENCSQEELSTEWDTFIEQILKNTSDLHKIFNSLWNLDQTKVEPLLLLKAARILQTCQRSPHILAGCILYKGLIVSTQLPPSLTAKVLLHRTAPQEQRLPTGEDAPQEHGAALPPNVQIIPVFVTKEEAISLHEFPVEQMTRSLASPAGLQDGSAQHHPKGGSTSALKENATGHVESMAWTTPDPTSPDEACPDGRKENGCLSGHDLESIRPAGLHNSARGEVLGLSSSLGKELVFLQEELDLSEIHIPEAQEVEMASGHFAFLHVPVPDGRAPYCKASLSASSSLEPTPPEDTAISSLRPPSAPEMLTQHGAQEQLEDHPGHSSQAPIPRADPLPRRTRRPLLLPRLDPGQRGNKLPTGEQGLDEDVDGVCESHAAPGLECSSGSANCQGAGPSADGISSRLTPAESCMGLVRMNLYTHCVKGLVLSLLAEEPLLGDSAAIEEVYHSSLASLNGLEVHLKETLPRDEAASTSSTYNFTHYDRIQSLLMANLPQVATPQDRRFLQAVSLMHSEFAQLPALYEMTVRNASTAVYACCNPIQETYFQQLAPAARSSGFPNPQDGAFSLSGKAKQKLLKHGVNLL
UniProt Q05084: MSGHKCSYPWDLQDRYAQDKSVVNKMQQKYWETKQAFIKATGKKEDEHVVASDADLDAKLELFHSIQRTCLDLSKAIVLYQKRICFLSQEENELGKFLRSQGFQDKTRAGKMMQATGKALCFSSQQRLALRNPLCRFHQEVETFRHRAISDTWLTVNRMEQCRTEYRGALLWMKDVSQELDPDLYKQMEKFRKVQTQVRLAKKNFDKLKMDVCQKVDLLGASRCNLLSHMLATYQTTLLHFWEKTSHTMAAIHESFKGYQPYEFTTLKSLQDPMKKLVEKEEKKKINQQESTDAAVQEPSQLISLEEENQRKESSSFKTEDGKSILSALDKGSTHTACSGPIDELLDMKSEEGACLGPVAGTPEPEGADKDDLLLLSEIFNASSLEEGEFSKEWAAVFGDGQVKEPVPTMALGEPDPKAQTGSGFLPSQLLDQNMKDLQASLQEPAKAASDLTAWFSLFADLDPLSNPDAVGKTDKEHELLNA
UniProt O75506: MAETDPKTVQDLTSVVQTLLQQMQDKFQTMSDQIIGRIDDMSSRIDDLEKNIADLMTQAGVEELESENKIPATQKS

Legend:
Assay in all cases: log2 fold change, soluble protein after heating vs DMSO (PISA); higher = thermal stabilisation; K562 cells, 10 uM, 30 min; active = over 0.2 and 3.5 SD of the protein, either way, in both replicates (recomputed)
[1] = compound: NC(=O)Nc1cc(-c2cccc(F)c2)sc1C(=O)N[C@H]1CCCNC1
In short: (§1)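 For each measurement, 10 μM compound was applied for 30 min to K562 cells at 2×10^6 cells/mL. Aliquots were heated for 3 min across 48°C-58°C, pooled, and extracted in PBS with 0.5% NP-40 at 4°C; the supernatant after 21,000xg for 90 min was soluble protein. This was quantified by TMTpro 16plex LC-MS/MS with channel sums equalised, and thermal stability was reported relative to control samples from duplicates, on a log2 fold-change scale.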

[2] = compound: NC(=O)c1cnc(N[C@@H]2CCCC[C@@H]2N)nc1Nc1cccc(-n2nccn2)c1
In short: as §1

[3] = compound: NC1(c2ccc(-c3nc4ccn5c(=O)[nH]nc5c4cc3-c3ccccc3)cc2)CCC1
In short: as §1

[4] = compound: NCC(=O)Nc1ccc(-n2nc(C(F)(F)F)cc2-c2ccc3c(ccc4ccccc43)c2)cc1
In short: as §1

entinostat = compound: Nc1ccccc1NC(=O)c1ccc(CNC(=O)OCc2cccnc2)cc1 [entinostat]
In short: as §1

vorinostat = compound: O=C(CCCCCCC(=O)Nc1ccccc1)NO [vorinostat]
In short: as §1

citarinostat = compound: O=C(CCCCCCNC(=O)c1cnc(N(c2ccccc2)c2ccccc2Cl)nc1)NO [citarinostat]
In short: as §1

silmitasertib = compound: O=C(O)c1ccc2c(c1)nc(Nc1cccc(Cl)c1)c1ccncc12 [silmitasertib]
In short: as §1

[5] = compound: O=C1NC(=O)C(c2cnc3ccccn23)=C1c1cn2c3c(cc(F)cc13)CN(C(=O)N1CCCCC1)CC2
In short: as §1

[6] = compound: c1cc(OCCN2CCCCC2)cc(-c2n[nH]c3ccc(-c4nnc[nH]4)cc23)c1
In short: as §1

Measured: log2 fold change

HHEX (UniProt Q03014)
inactive: [1] 0.04 | [2] 0.084 | [3] -0.054 | entinostat 0.045 | vorinostat 0.012 | citarinostat 0.029 | silmitasertib -0.018 | [5] 0.006 | [6] -0.016
active: [4] 0.568

HTD2 (UniProt P86397)
inactive: [1] -0.099 | [2] -0.001 | [3] -0.048 | [4] 0.144 | entinostat -0.016 | vorinostat -0.105 | citarinostat -0.028 | silmitasertib 0.093 | [5] -0.106 | [6] 0.005

HOXB9 (UniProt P17482)
inactive: [1] -0.016 | [2] -0.024 | [3] -0.092 | [4] 0.005 | entinostat 0.113 | citarinostat 0.155 | silmitasertib -0.069 | [5] -0.02 | [6] -0.162

HPS1 (UniProt Q92902)
inactive: [1] 0.029 | [2] -0.089 | [3] -0.288 | [4] -0.174 | entinostat -0.069 | citarinostat 0.103 | silmitasertib 0.043 | [6] 0.122

ICAM4 (UniProt Q14773)
inactive: [1] 0.098 | [2] -0.044 | [3] -0.057 | [4] 0.032 | entinostat 0.03 | vorinostat -0.091 | citarinostat 0.023 | silmitasertib 0.028 | [5] 0 | [6] -0.203

HSCB (UniProt Q8IWL3)
inactive: [1] 0 | [2] -0.012 | [3] -0.035 | [4] -0.138 | entinostat -0.094 | vorinostat 0.064 | silmitasertib 0.002 | [5] -0.037

HMGN5 (UniProt Q5JSK9)
inactive: [1] -0.202 | [2] -0.295 | [3] -0.249 | [4] -0.303 | entinostat -0.199 | vorinostat 0 | citarinostat -0.245 | silmitasertib 0.031 | [5] 0.045 | [6] -0.357

HSPA2 (UniProt P54652)
inactive: [1] -0.015 | [2] 0.076 | [3] -0.071 | entinostat -0.039 | silmitasertib 0.006

HUWE1 isoform 2 (UniProt Q7Z6Z7)
inactive: [1] -0.067 | [2] -0.112 | entinostat 0.112

HSP90AB3P (UniProt Q58FF7)
inactive: [1] 0.015 | [2] -0.023 | [3] -0.175 | entinostat -0.038 | vorinostat 0.104 | citarinostat 0.04 | silmitasertib -0.028 | [6] 0.071

HS1BP3 (UniProt Q53T59)
inactive: [1] -0.059 | [2] -0.075 | [4] 0.027 | entinostat -0.05 | citarinostat 0.115 | [5] -0.016 | [6] 0.108

HIGD2A (UniProt Q9BW72)
inactive: [5] -0.221

HOOK1 (UniProt Q9UJC3)
inactive: [2] -0.246 | [4] -0.117 | citarinostat 0.006 | [5] -0.002 | [6] -0.026

HIST2H2AA3 (UniProt Q6FI13)
inactive: [2] 0.485 | [3] 0.524 | [4] 0.235 | vorinostat 0.28 | citarinostat 0.218 | silmitasertib 0.056 | [5] 0.131 | [6] 0.818

HIF1AN (UniProt Q9NWT6)
inactive: [2] 0.024 | [3] 0.068 | [4] -0.088 | vorinostat 0.093 | citarinostat -0.035 | silmitasertib 0.005 | [5] -0.027 | [6] -0.19

HOXD9 (UniProt P28356)
inactive: [2] -0.301 | [4] -0.101 | vorinostat 0.085 | citarinostat -0.059 | [6] -0.084

HOMER3 (UniProt Q9NSC5)
inactive: [1] 0.063 | [3] 0.16 | entinostat 0.083 | silmitasertib -0.014

ID1 (UniProt P41134)
inactive: [3] -0.135 | silmitasertib -0.031 | [5] -0.451

IBTK (UniProt Q9P2D0)
inactive: [1] -0.108 | [2] 0.075 | entinostat 0.01 | vorinostat 0.086 | citarinostat -0.129 | [5] 0.092 | [6] -0.228

HPF1 (UniProt Q9NWY4)
inactive: [5] 0.01

HNRNPK isoform 3 (UniProt P61978)
inactive: [1] -0.06 | [3] 0.052 | [4] -0.182 | entinostat 0.023 | vorinostat 0.035 | citarinostat -0.009 | silmitasertib 0.028 | [5] 0.159 | [6] -0.102

HIGD1A isoform 2 (UniProt Q9Y241)
inactive: [1] -0.174 | [3] 0.019 | entinostat -0.096 | silmitasertib -0.009

HMGXB4 (UniProt Q9UGU5)
inactive: citarinostat -0.021 | [5] 0.075 | [6] -0.04

HSPBP1 (UniProt Q9NZL4)
inactive: [5] 0.28

HMG20B (UniProt Q9P0W2)
inactive: vorinostat 0.129

Reprinted from above (three entries):
HIGD1A isoform 2 (UniProt Q9Y241)
inactive: [1] -0.174 | [3] 0.019 | entinostat -0.096 | silmitasertib -0.009

HMGXB4 (UniProt Q9UGU5)
inactive: citarinostat -0.021 | [5] 0.075 | [6] -0.04

HSPBP1 (UniProt Q9NZL4)
inactive: [5] 0.28

More entries:

ICOSLG isoform 2 (UniProt O75144)
inactive: [3] 0.241 | [4] 0.114 | silmitasertib 0.104

HTR1F (UniProt P30939)
inactive: [2] -0.119 | vorinostat 0.061

ICE2 (UniProt Q659A1)
inactive: [2] 0.014 | [4] 0.214 | vorinostat 0.029 | [5] -0.014

HOMER2 (UniProt Q9NSB8)
inactive: [2] 0.475 | [3] -0.077 | [4] -0.089 | citarinostat -0.074 | silmitasertib 0.071 | [5] -0.419 | [6] -0.129

ICE1 (UniProt Q9Y2F5)
inactive: [1] -0.135 | [3] 0.031 | entinostat -0.074 | silmitasertib 0.019 | [5] -0.19

HSPBAP1 (UniProt Q96EW2)
inactive: [2] -0.221 | [4] -0.332

HMBS (UniProt F5H0P4)
inactive: [3] -0.653 | silmitasertib -0.178

HOXB4 (UniProt P17483)
inactive: [5] -0.04

HNRNPR (UniProt O43390)
inactive: [1] -0.158 | [3] 0.283 | entinostat -0.088 | citarinostat 0.034 | silmitasertib 0.216 | [5] 0.091 | [6] -0.172

HLA-E (UniProt P13747)
inactive: [1] 0.03 | [2] 0.087 | entinostat 0.06 | vorinostat 0.034 | [5] -0.078

HMGCS2 (UniProt P54868)
inactive: [1] 0.199 | entinostat 0.017

HOOK2 (UniProt Q96ED9)
inactive: citarinostat -0.012 | [5] 0.108 | [6] 0.031

HNRNPUL1 (UniProt M0R247)
inactive: [1] -0.056 | [2] -0.629 | entinostat -0.352 | citarinostat -0.227 | [6] -0.014

HUWE1, A0A087X1S3
inactive: [1] -0.074 | entinostat 0.041 | vorinostat -0.069 | citarinostat -0.046 | [5] -0.132 | [6] -0.151

HP (UniProt P00738)
inactive: [1] 2.56 | entinostat 0.137

HMBS (UniProt F5H226)
inactive: [1] -0.005 | [3] -0.02 | [4] -0.206 | entinostat 0.038 | vorinostat 0.051 | silmitasertib -0.065

HPS4 isoform 4 (UniProt Q9NQG7)
inactive: vorinostat -0.361

ICA1 isoform 2 (UniProt Q05084)
inactive: [2] -0.001 | vorinostat 0.093 | [5] -0.095

HSBP1 (UniProt O75506)
inactive: citarinostat 0.123 | [6] 0.087
